Source: PMC9134912
Results are given in words; binding and its absence hold for the method and conditions named. In cells and extracts the contact can be indirect. Some binding calls cover weakened binding; strength is not graded here.

Chains of the proteins cited; added tags and fusions are not shown.
UniProt Q9GZV5: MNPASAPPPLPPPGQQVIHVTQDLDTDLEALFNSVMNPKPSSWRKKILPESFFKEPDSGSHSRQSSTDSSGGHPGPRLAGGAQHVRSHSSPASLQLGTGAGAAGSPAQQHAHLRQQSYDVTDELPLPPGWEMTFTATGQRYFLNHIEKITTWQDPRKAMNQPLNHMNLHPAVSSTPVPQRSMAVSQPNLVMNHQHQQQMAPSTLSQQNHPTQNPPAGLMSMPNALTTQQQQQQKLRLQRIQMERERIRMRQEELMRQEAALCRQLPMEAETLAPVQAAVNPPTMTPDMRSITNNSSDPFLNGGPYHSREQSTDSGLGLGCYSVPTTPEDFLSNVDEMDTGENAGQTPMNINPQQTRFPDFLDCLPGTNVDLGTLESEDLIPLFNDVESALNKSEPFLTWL

Biological target: T1, Ubiquitin-specific protease 1 (USP1) (human (endogenous in 143B and HOS)) (UniProt O94782)
T1 sequence: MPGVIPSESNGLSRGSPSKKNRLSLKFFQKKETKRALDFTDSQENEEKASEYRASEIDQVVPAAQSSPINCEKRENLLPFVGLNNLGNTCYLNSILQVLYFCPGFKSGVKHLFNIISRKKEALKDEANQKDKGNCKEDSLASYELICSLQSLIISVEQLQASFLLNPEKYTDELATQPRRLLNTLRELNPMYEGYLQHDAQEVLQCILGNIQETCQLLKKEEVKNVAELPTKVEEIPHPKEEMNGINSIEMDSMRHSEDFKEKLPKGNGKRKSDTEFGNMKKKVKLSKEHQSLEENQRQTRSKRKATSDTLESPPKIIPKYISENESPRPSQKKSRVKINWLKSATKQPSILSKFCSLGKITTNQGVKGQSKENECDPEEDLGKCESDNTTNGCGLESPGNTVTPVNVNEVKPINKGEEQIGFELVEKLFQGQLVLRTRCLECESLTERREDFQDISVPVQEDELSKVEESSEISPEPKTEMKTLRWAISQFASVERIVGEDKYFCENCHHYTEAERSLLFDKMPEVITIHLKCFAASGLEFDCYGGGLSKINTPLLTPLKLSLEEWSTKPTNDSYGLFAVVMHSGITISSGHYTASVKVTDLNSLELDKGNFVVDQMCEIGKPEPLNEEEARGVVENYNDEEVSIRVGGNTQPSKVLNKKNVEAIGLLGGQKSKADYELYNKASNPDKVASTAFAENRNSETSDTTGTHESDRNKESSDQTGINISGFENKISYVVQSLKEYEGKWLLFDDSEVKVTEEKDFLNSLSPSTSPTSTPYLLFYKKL
Assay: co-IP; endogenous proteins in RIPA lysates of 143B and HOS cells; precipitated with anti-USP1 antibody (and the reverse Co-IP), protein A/G-agarose, 4 °C; IgG as control; Western blot

For “Transcriptional Co-Activator With PDZ-Binding Motif (TAZ) (from UniProt Q9GZV5 1-400)”, the binding was “binds”.
